Data source: PubChem BioAssay AID1671195 (Yale University, 2021)

Aim: 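Genes whose knockdown alters LDL uptake in liver cancer cells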 (primary screen)
Cell system: human Huh7 hepatoma cells
Knock-down reagent: siRNA pool against human genes, 18 nM
Timing: about 2 to 2.5 days of knockdown, then 8 h LDL uptake
Treatment: DiI-labelled LDL at 30 µg/ml for 8 h, in lipoprotein-deficient serum medium
Measured: 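Fluorescent LDL signal imaged in cells, scaled to the plate median, robust z-score for each replicate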
Scale: robust z-score: higher = more LDL uptake after knockdown
Call rule: 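Active when two or more replicates show a robust z-score above 2 or below -2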
Here is one part, drawn at random, of about 22,000 reagents tested. About 1,510 of all reagents (6.9%) count as active. 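Active includes knockdowns raising or lowering LDL uptake; positive z-scores mean more uptake, negative mean less.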

target gene | robust z-score, replicate 1 | robust z-score, replicate 2 | robust z-score, replicate 3 | call
THBS4 | -1.06 | -1.24 | -0.515 | inactive
ELAVL1 | 2.85 | 2.89 | 2.43 | active
ATE1 | -1.23 | -1.44 | -1.35 | inactive
MT1CP | 0.261 | -0.219 | 0.262 | inactive
COLEC10 | -0.447 | -0.845 | -1.7 | inactive
LPIN1 | -0.534 | 1.77 | -1.24 | inactive
KANK2 | -0.44 | 1.27 | -1.25 | inactive
FAM167A | -1.14 | -0.939 | -1.41 | inactive
LOC440751 (retired record) | -1.14 | -0.957 | -1.33 | inactive
RBM15B | 1.55 | 1.2 | 1.6 | inactive
LOC400876 (retired record) | -0.791 | -0.856 | -0.965 | inactive
METTL1 | 0.363 | 2.72 | 1.33 | inactive
KIAA1143 | -0.821 | -0.567 | -0.275 | inactive
GEM | -1.34 | 1.89 | 0.259 | inactive
ZNF552 | 0.0632 | 0.149 | 0.0685 | inactive
NAA50 | 0.405 | 0.283 | 0.415 | inactive
AURKAIP1 | -0.489 | -1.84 | -1.1 | inactive
ADAMTSL4-AS1 | 0.829 | 0.907 | 0.626 | inactive
HNRNPABP1 | -1.4 | -1.43 | -1.75 | inactive
CRTAM | -0.14 | -0.436 | -0.0819 | inactive
ATG2B | 0.804 | -0.00502 | 1.23 | inactive
GHITM | -0.492 | 1.06 | -0.246 | inactive
RNASE3 | -0.85 | -1.13 | -0.77 | inactive
ETFDH | -1 | -2.02 | -0.666 | inactive
CAPNS2 | -1.32 | -0.367 | -1.76 | inactive
PAPPA2 | -0.811 | -0.733 | -0.838 | inactive
FAM47A | -1.76 | -0.861 | -1.35 | inactive
C2CD3 | -0.81 | -0.352 | 0.231 | inactive
GABRA2 | -0.575 | -0.83 | -0.822 | inactive
GLIPR1 | -0.166 | 0.928 | 0.33 | inactive
ADAM11 | -1.62 | -1.57 | -1.68 | inactive
CCDC91 | 0.683 | 0.132 | 0.54 | inactive
OR52N2 | -0.81 | -0.866 | -1.04 | inactive
CR1L | -1 | 0.0438 | -0.69 | inactive
LOC391727 (retired record) | 1.58 | 1.12 | 1.27 | inactive
GAS2L3 | 1.03 | 1.31 | 0.987 | inactive
MECP2 | -0.561 | 0.0979 | -0.681 | inactive
FCRL5 | 2.73 | 2.54 | 1.84 | active
OPA1 | -0.932 | -0.259 | -0.758 | inactive
ZFP36 | 0.138 | 0.15 | 0.195 | inactive
CALHM2 | 0.986 | 0.284 | -1.79 | inactive
SLC25A38 | -0.174 | 0.496 | -0.174 | inactive
SERPINB1 | 1.5 | 0.954 | 1.09 | inactive
GCNT1 | 0.915 | 2.14 | 1.26 | inactive
FBXL2 | 1.77 | 1.43 | 0.02 | inactive
FRAT2 | 1.03 | -0.983 | 1.86 | inactive

Called active (from the list above):
target gene | robust z-score, replicate 1 | robust z-score, replicate 2 | robust z-score, replicate 3 | call
ELAVL1 | 2.85 | 2.89 | 2.43 | active
FCRL5 | 2.73 | 2.54 | 1.84 | active
